Assay results from patent US20230365651A1.

molecular target: HLA-B*08:01 (human); assay: pMHC stability, b2m dissociation half-life at 37 C

binding, binds:
EAMKRLSYI [… (SEQ ID NO: 157)]
LPKLAGLL [LPKLAGLL (SEQ ID NO: 158)]
VLKHKLDEL [… (SEQ ID NO: 159)]
YPKARLAF [YPKARLAF (SEQ ID NO: 160)]
ALKTTTTAL [… (SEQ ID NO: 161)]
QAKTHSTL [QAKTHSTL (SEQ ID NO: 162)]
QGLLRPVF [QGLLRPVF (SEQ ID NO: 163)]
SIKTKSAEM [… (SEQ ID NO: 164)]
TPKLRETSI [… (SEQ ID NO: 166)]
TSHERLTTL [… (SEQ ID NO: 167)]
TSMPRSSAM [… (SEQ ID NO: 169)]
YLLEKSRVI [… (SEQ ID NO: 170)]
FAFRKEAL [FAFRKEAL (SEQ ID NO: 171)]
KLKERNREL [… (SEQ ID NO: 172)]
MYKMKKPI [MYKMKKPI (SEQ ID NO: 394)]

molecular target: HLA-A*24:02 (human); assay: UV peptide exchange, anti-b2m ELISA

binding, binds:
RYSDSVGRVSF [… (SEQ ID NO: 10)]
SYSDLHYGF [… (SEQ ID NO: 11)]
KYEKIFEML [… (SEQ ID NO: 12)]
VYTFLSSTL [… (SEQ ID NO: 13)]
FYFPTPTVL [… (SEQ ID NO: 14)]
VYHDDKQPTF [… (SEQ ID NO: 15)]
IYSPQFSRL [… (SEQ ID NO: 16)]
RFTTMLSTF [… (SEQ ID NO: 17)]
KYPVHIYRL [… (SEQ ID NO: 18)]
KYVKVFHQF [… (SEQ ID NO: 19)]
KYVAELSLL [… (SEQ ID NO: 76)]
RYGPVFTV [RYGPVFTV (SEQ ID NO: 77)]
SFAPRSAVF [… (SEQ ID NO: 78)]
SYNEHWNYL [… (SEQ ID NO: 79)]
TAYMVSVAAF [… (SEQ ID NO: 80)]
VYNHTTRPL [… (SEQ ID NO: 81)]
SYFRGFTLI [… (SEQ ID NO: 82)]
RYLAVVHAVF [… (SEQ ID NO: 246)]
VYTPTLGTL [… (SEQ ID NO: 249)]
LYQPRASEM [… (SEQ ID NO: 252)]
VFVSFSSLF [… (SEQ ID NO: 255)]

molecular target: HLA-A*01:01 (human); assay: UV peptide exchange, anti-b2m ELISA

binding, binds:
LLDEGAMLLY [… (SEQ ID NO: 31)]
TVTGAEQIQY [… (SEQ ID NO: 112)]
QLDSNRLTY [… (SEQ ID NO: 113)]
VMEQSAGIMY [… (SEQ ID NO: 114)]
FVDNQYWRY [… (SEQ ID NO: 115)]
VLLDEGAMLLY [… (SEQ ID NO: 116)]
SPVTSVHGGTY [… (SEQ ID NO: 288)]
RWEKTDLTY [… (SEQ ID NO: 289)]
DMDEEIEAEY [… (SEQ ID NO: 290)]
ETIRSVGYY [… (SEQ ID NO: 291)]
NVTMKVVSVLY [… (SEQ ID NO: 292)]

These are yes or no findings as the source states them, for the method shown. Binding calls can cover weak binding; strength is not graded here.
